Results as given in patent publication US20090111753A1, “Nogo-A Polypeptide Fragments, Variant Nogo Receptor-1 Polypeptides, and Uses Thereof” (Yale University, priority 2004, published 2009).
Where a chain is given by its changes, count along the chain named. Numbers in names are those of the source. No constants are given. Whether binding was seen depends on the method and setting. Some results given as binding are weak or reduced against the parent protein; the word gives no strength.

Tests used:
Experiment in all cases: AP-ligand binding, COS-7
[1] = biological target: T1, human NgR1 alanine mutant 122 (human) (UniProt Q9BZR6)
T1 sequence: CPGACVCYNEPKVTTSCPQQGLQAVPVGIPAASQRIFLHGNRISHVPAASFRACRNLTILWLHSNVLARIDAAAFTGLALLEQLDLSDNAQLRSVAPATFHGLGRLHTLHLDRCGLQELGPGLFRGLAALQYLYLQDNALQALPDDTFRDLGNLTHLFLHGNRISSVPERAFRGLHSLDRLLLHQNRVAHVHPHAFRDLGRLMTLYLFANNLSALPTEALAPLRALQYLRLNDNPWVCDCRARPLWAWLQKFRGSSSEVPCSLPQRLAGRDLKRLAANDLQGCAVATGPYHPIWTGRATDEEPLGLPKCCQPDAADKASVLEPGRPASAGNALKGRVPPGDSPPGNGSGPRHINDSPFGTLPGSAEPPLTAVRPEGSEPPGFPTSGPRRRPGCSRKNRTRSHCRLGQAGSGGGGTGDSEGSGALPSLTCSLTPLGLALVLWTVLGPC

[2] = biological target: T2, human NgR1 alanine mutant 138 (human) (UniProt Q9BZR6)
T2 sequence: T1 sequence with A96D, D112A

[3] = biological target: T3, human NgR1 alanine mutant 171, 172, 175, 176 (human) (UniProt Q9BZR6)
T3 sequence: T1 sequence with A96D, D145A, D146A, R149A, D150A

[4] = biological target: T4, human NgR1 alanine mutant 202, 205 (human) (UniProt Q9BZR6)
T4 sequence: T1 sequence with A96D, H176A, D179A

[5] = biological target: T5, human NgR1 alanine mutant 89, 90 (human) (UniProt Q9BZR6)
T5 sequence: T1 sequence with H63A, S64A, A96D

[6] = biological target: T6, wild type human NgR1 expressed on COS-7 cells (human) (UniProt Q9BZR6)
T6 sequence: T1 sequence with A96D

Measured: binding

B1: AP-Nogo-66 (ligand, UniProt Q9NQC3 1055-1120, looked up)
chain: RIYKGVIQAIQKSDEGHPFRAYLESEVAISEELVQKYSNSALGHVNCTIKELRRLFLVDDLVDSLK
notes: domain: Nogo-66; construct described elsewhere (Fournier 2001); also called AP-Ng66; Ng66; not shown: alkaline phosphatase (AP); construct described elsewhere
binds: [1] | [2] | [3] | [4] | [5] | [6]

B2: AP-fused Amino-Nogo fragment B4C (a.a. 950-1018) (ligand)
chain: LLPPDVSALATQAEIESIVKPKVLVKEAEKKLPSDTEKEDRSPSAIFSAELSKTSVVDLLYWRDIKKTG
notes: also called AmNg B4C; AP-B4C; not shown: alkaline phosphatase (AP), vector pcAP6
binds: [1] | [2] | [3] | [4] | [5] | [6]
